Measured data: PubChem BioAssay AID504793 (Drosophila RNAi Screening Center, 2011)
Aim: 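Knock-downs allowing continued mitosis even though DNA is damaged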 (primary screen). Cells: Drosophila S2R+ cells. Reagents: long dsRNA against Drosophila genes, about 0.25 µg dsRNA per well. Duration: 4 days of dsRNA, then 4 hours of drug before read-out. Challenge: doxorubicin 0.5 µM for 4 hours to cause double-strand breaks, in cells also given a low, harmless dose of dsRNA against nbs to sensitise the assay. Measurement: 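Mitotic index as the number of phospho-histone H3-positive cells in each well following doxorubicin, given as raw counts without normalisation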. Scale: mitotic cells: higher = more cells in mitosis, weaker G2 arrest. Hit rule: 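a call needs confirmation in secondary tests, with other dsRNAs and a check of mitotic timing without damage, not just a high primary count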. Meaning of the calls: active = confirmed in follow-up tests; inactive = not confirmed.
In all, the deposit lists about 23,000 reagents; shown is an unselected part of those with a known target gene and a result. In the full data, 62 (0.27%) are marked active. 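Calls come from follow-up tests whose scores are not deposited, so confirmed genes may have low counts here; counts are not normalised per plate.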 Raw values are not corrected between plates. Unmarked entries are inactive. Names joined by + are all predicted targets of the reagent. Reagent sequences are not shown.

How did the screen score CG9132 [DRSC20159]?
mitotic cells, replicate 1: 4

What did the screen give for Rab3-GEF (Rab3 GDP-GTP exchange factor) [DRSC19954]?
mitotic cells, replicate 1: 7

With Rab3-GEF (Rab3 GDP-GTP exchange factor) [DRSC19955], what does the deposit list?
mitotic cells, replicate 1: 12

With Rab3-GEF (Rab3 GDP-GTP exchange factor) [DRSC27720], what was measured?
mitotic cells, replicate 1: 4

How did the screen score CG8303 [DRSC07140]?
mitotic cells, replicate 1: 7

With CG13843 [DRSC14693], how do the results read?
mitotic cells, replicate 1: 12

For chico [DRSC03531], how do the results read?
mitotic cells, replicate 1: 2

What did the screen give for mbf1 (multiprotein bridging factor 1) [DRSC11365]?
mitotic cells, replicate 1: 7

For CG34315 + Orc3 [DRSC07642], what does the deposit list?
mitotic cells, replicate 1: 6

How did the screen score CG34315 + Orc3 [DRSC25371]?
mitotic cells, replicate 1: 6

With Acox57D-d (acyl-Coenzyme A oxidase at 57D distal) [DRSC04561], how do the results read?
mitotic cells, replicate 1: 10

With Acox57D-d (acyl-Coenzyme A oxidase at 57D distal) [DRSC30108], what was measured?
mitotic cells, replicate 1: 5

For Got1 (Glutamate oxaloacetate transaminase 1) [DRSC07177], how do the results read?
mitotic cells, replicate 1: 2

How did the screen score Got1 (Glutamate oxaloacetate transaminase 1) [DRSC26159]?
mitotic cells, replicate 1: 4

With CG3502 [DRSC04381], how do the results read?
mitotic cells, replicate 1: 6

How did the screen score Ras64B (Ras oncogene at 64B) [DRSC08689]?
mitotic cells, replicate 1: 5

For Ras64B (Ras oncogene at 64B) [DRSC26766], what does the deposit list?
mitotic cells, replicate 1: 5

With lectin-46Cb [DRSC06611], what was measured?
mitotic cells, replicate 1: 7

With lectin-46Cb [DRSC25309], what was measured?
mitotic cells, replicate 1: 12

What did the screen give for eIF4E1 (eukaryotic translation initiation factor 4E1) [DRSC11342]?
mitotic cells, replicate 1: 11

How did the screen score eIF4E1 (eukaryotic translation initiation factor 4E1) [DRSC23583]?
mitotic cells, replicate 1: 7

With Sgp (Sgroppino) [DRSC02195], what does the deposit list?
mitotic cells, replicate 1: 5

With Rdh1 (Retinol dehydrogenase 1) [DRSC06812], how do the results read?
mitotic cells, replicate 1: 9

How did the screen score clos (closca) [DRSC06240]?
mitotic cells, replicate 1: 16

What is on record for clos (closca) [DRSC06241]?
mitotic cells, replicate 1: 5

For clos (closca) [DRSC06778], what does the deposit list?
mitotic cells, replicate 1: 5

Which result is listed for clos (closca) [DRSC21857]?
mitotic cells, replicate 1: 6

What did the screen give for clos (closca) [DRSC22942]?
mitotic cells, replicate 1: 13

For Optix [DRSC05078], what does the deposit list?
mitotic cells, replicate 1: 9

What is on record for Optix [DRSC07484]?
mitotic cells, replicate 1: 4

What is on record for Optix [DRSC21963]?
mitotic cells, replicate 1: 11

How did the screen score Optix [DRSC29089]?
mitotic cells, replicate 1: 5

What did the screen give for CG17834 [DRSC02637]?
mitotic cells, replicate 1: 4

What is on record for CG17834 [DRSC26694]?
mitotic cells, replicate 1: 5

Targets above whose target name starts with G or g (2):
Got1 (Glutamate oxaloacetate transaminase 1) [DRSC07177] | mitotic cells, replicate 1: 2
Got1 (Glutamate oxaloacetate transaminase 1) [DRSC26159] | mitotic cells, replicate 1: 4
